Consider ten molecules from PubChem BioAssay AID555 (SRMLSC, 2006).

Some of the results follow.

The assay concerns mevalonate kinase [Streptococcus pneumoniae D39]. Briefly: pneumococcal mevalonate kinase activity blockers – biochemical, PK/LDH-coupled NADH absorbance, primary screen (AID 555). The settings on record: purified MK, PK/LDH-coupled NADH absorbance 340 nm; measured here: pilot screen replicates; at 10 µM; stronger effect = higher value.
Molecule `CN(C)CCOC(=O)C(O)(c1ccccc1)C1CCCCC1` (stereo not given) had an inhibition of 0.5%.
Next, `O=P(Nc1nccs1)(c1ccccc1)c1ccccc1`: 0%; `CP(=O)(Nc1ccc2c(c1)OCCO2)Oc1ccccc1` (stereo not given): 6%.
For `CP(=O)(Nc1ccccn1)Oc1ccccc1` (stereo not given), the inhibition is 0%.
As to `CP(=S)(Nn1cnnc1)Oc1ccccc1` (stereo not given), the inhibition was found to be 1%.
For the molecule `O=C(COc1ccccc1)OC1CN2CCC1CC2` (stereo not given), the inhibition came out at 3%.
The result for `COP1(=S)c2c(C)nn(CCC#N)c2N=C(c2ccc(F)cc2)N1C` (stereo not given) reads 0%; that for `Cc1nn(-c2ccccc2)c2c1P(=O)(N1CCOCC1)N(C)C(c1ccccc1)=N2` (stereo not given), 2%.
As for `CCOP1(=S)c2c(C)nn(CCC#N)c2N=C(c2ccccc2F)N1C` (stereo not given), the inhibition was found to be 0%.
Next, `Cc1ccc(C)c(NP(C)(=O)Oc2ccccc2)c1` (stereo not given): 0%.

As usually defined, the inhibition is the percentage by which the read-out fell short of the control.
